Test results reported in US20100113575A1.
No constants are given. Whether binding was seen depends on the method and setting. In cells and extracts the contact can be indirect. Some results given as binding are weak or reduced against the parent protein; the word gives no strength.

Chains of the proteins cited; added tags and fusions are not shown. Lines headed by an entry give the natural chain unless they say otherwise; changes in a name come on top.
UniProt Q8NBP7: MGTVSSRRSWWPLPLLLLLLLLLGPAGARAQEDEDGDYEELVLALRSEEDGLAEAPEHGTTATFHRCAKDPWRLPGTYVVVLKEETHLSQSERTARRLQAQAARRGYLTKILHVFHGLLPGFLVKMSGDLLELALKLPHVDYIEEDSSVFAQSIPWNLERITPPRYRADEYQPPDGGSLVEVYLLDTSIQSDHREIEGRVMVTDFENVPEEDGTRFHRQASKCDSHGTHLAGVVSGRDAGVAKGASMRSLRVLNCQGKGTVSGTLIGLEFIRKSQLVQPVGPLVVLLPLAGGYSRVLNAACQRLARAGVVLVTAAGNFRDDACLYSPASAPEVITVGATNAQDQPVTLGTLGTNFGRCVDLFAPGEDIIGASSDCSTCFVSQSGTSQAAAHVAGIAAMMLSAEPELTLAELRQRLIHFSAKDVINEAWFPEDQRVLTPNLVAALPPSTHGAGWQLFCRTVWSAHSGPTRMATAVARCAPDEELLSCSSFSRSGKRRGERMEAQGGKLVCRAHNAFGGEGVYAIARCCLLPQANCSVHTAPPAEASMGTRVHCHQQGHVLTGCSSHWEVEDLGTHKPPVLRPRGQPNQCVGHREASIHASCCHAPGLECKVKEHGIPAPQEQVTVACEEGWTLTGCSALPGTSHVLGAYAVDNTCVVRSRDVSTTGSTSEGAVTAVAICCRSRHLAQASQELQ

Key:
[1] = target: processed D186A PCSK9, mature chain (human) (UniProt Q8NBP7); test: co-purification over columns, Coomassie gel
[2] = target: processed WT PCSK9, mature chain (human) (UniProt Q8NBP7); test: co-purification over columns

PCSK9 pro domain (from UniProt Q8NBP7 31-152)
binding [1]: binds | binding [2]: binds
